Reference: patent US10036011B2, “Scavenger compounds for improved sequencing-by-synthesis” (QIAGEN Waltham, Inc., priority 2016, dated 2018)

Experiments:
[1] = system: clonally amplified gene panel beads (NA12878 barcoded library, 101X gene panel); assay: Sequencing-by-synthesis performance with scavenger in cleave reagent (IPA versus gallic acid, system and application KPIs); details: gallic acid as benchmark cleave additive
[2] = Bead loss in flow cells during sequencing runs (reliability); details: for bead loss (share of flow cells): other runs (data not shown): gallic acid 11 of 31 flow cells, IPA 0 of 44 flow cells
[3] = comparative statistics: IPA across 90 flow cells, gallic acid across 30 flow cells

Row | SMILES | filtered trimmed sequence output [1] [Gb] | bead loss in affected flow cell ([2]; GDP4 testing, one (1) out of seven (7) flow cells) [%] | bead loss rate [2, 3] [%] | bead loss (share of flow cells) [2] [%] | failure rate ([2]; preliminary gallic acid assays) | flow cells showing bead loss ([2]; GDP4 testing, fifteen (15) flow cells) | bead loss rate ([2]; IPA guardbanding, one (1) of sixteen (16) flow cells) [%] | flow cells with bead loss ([2]; other runs, out of fifty (50) flow cells)
1 | O=C(O)c1cc(O)c(O)c(O)c1 [gallic acid, reference compound] | 1 | ~30 | 30 | ~35 | 10-15% |  |  | 
2 | O=C(O)CCc1c[nH]c2ccccc12 [IPA, indole-3-propionic acid] |  |  | 0 | 0 |  | no flow cells showed any bead loss | 6 | 0
